Data as given in PubChem BioAssay AID1259308 (NCATS, 2017).
The deposit covers about 59,000 reagents; this is an unselected part. About 1,510 of all reagents (2.6%) were called active. 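Calls use total luciferase alone and ignore viability, so some active siRNAs may act by altering cell number.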 A number with no mark means an inactive call. The numbers tell different reagents against one gene apart. Further read-outs or replicates are left out here.

Assay: 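Genes whose loss raises luciferase production in HEK293 cells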 (primary screen)
Cell system: human HEK293 embryonic kidney cells stably expressing firefly luciferase (HEK-CMV-Luc2-Hygro)
Knock-down reagent: single siRNA against human genes, 0.8 pmol siRNA per well
Duration: 72 h
Measured: 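Reporter luminescence and viable-cell signal on separate replicate plates, given as percent of non-targeting control and median/MAD z-scores, plus per-cell luciferase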
Reading the numbers: total luciferase, z-score and total luciferase, % of control: higher = more reporter protein produced
Call rule: 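Active when the median/MAD z-score for overall luciferase is greater than 3; a gene was taken forward for validation with new siRNAs if at least two of its three siRNAs passed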
Calls: active = raised luciferase; inactive = no rise

| target gene | siRNA no. | total luciferase, z-score | total luciferase, % of control |
| --- | --- | --- | --- |
| CHD1L (GeneID 9557) | 1 | 6.54 (active) | 212 |
| CHD1L (GeneID 9557) | 2 | 0.89 | 99.6 |
| CHD1L (GeneID 9557) | 3 | 0.51 | 92 |
| COQ10B (GeneID 80219) | 1 | 2.29 | 127 |
| COQ10B (GeneID 80219) | 2 | -0.962 | 62.7 |
| COQ10B (GeneID 80219) | 3 | -0.516 | 71.6 |
| ZC3H18 (GeneID 124245) | 1 | -0.0577 | 80.7 |
| ZC3H18 (GeneID 124245) | 2 | 1.72 | 116 |
| ZC3H18 (GeneID 124245) | 3 | -0.235 | 77.2 |
| GNG11 (GeneID 2791) | 1 | -0.424 | 73.5 |
| GNG11 (GeneID 2791) | 2 | 1.14 | 105 |
| GNG11 (GeneID 2791) | 3 | -0.333 | 75.3 |
| NRROS (GeneID 375387) | 1 | 0.157 | 85 |
| NRROS (GeneID 375387) | 2 | -0.0125 | 81.6 |
| NRROS (GeneID 375387) | 3 | -0.12 | 79.5 |
| BLID (GeneID 414899) | 1 | 1.87 | 119 |
| BLID (GeneID 414899) | 2 | 0.803 | 97.9 |
| BLID (GeneID 414899) | 3 | -0.795 | 66.1 |
| MYH9 (GeneID 4627) | 1 | -2.16 | 38.9 |
| MYH9 (GeneID 4627) | 2 | -0.379 | 74.3 |
| MYH9 (GeneID 4627) | 3 | -0.201 | 77.9 |
| HCP5 (GeneID 10866) | 1 | -0.753 | 66.9 |
| HCP5 (GeneID 10866) | 2 | -1.15 | 59 |
| HCP5 (GeneID 10866) | 3 | -0.566 | 70.6 |

Entries above whose target name begins with G or g (3):
| target gene | siRNA no. | total luciferase, z-score | total luciferase, % of control |
| --- | --- | --- | --- |
| GNG11 (GeneID 2791) | 1 | -0.424 | 73.5 |
| GNG11 (GeneID 2791) | 2 | 1.14 | 105 |
| GNG11 (GeneID 2791) | 3 | -0.333 | 75.3 |

Next entries follow.
| target gene | siRNA no. | total luciferase, z-score | total luciferase, % of control |
| --- | --- | --- | --- |
| TRMT11 (GeneID 60487) | 1 | 0.761 | 97 |
| TRMT11 (GeneID 60487) | 2 | -1.35 | 55 |
| TRMT11 (GeneID 60487) | 3 | -0.752 | 66.9 |
| BHLHA9 (GeneID 727857) | 1 | -0.76 | 66.8 |
| BHLHA9 (GeneID 727857) | 2 | 0.733 | 96.5 |
| BHLHA9 (GeneID 727857) | 3 | 0.546 | 92.7 |
| POMK (GeneID 84197) | 1 | -0.606 | 69.8 |
| POMK (GeneID 84197) | 2 | 0.631 | 94.4 |
| POMK (GeneID 84197) | 3 | 0.621 | 94.2 |
| HMGB3P22 (GeneID 729595) | 1 | 0.519 | 92.2 |
| HMGB3P22 (GeneID 729595) | 2 | -0.606 | 69.8 |
| HMGB3P22 (GeneID 729595) | 3 | -0.0479 | 80.9 |
| ZNF708 (GeneID 7562) | 1 | 1.13 | 104 |
| ZNF708 (GeneID 7562) | 2 | -0.694 | 68.1 |
| ZNF708 (GeneID 7562) | 3 | -1.04 | 61.1 |
